Source: PubChem BioAssay AID1259314 (Drosophila RNAi Screening Center, 2017)
Here is an unselected part of about 3,100 reagents. 289 of all reagents (9.3%) were called active. 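Active includes both higher and lower ATP than plate average; check the z-score sign for direction.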 The numbers tell different reagents against one gene apart. A plus sign joins genes that one reagent is predicted to hit. Not given: the amount of reagent.

Test: 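Transmembrane protein genes affecting ATP after manganese overload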 (primary screen)
Cell system: Drosophila S2R+ cells
Reagents: long dsRNA against Drosophila genes
Time to read-out: 5 days (4 days knock-down, then 1 day metal exposure)
Treatment: manganese chloride added to 15 mM for 24 hours
Read-out: 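Luciferase ATP signal used as a proxy for viable cell number, reported as one averaged z-score per dsRNA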
Direction: mean ATP z-score: higher = more ATP than the plate average, more viable cells under manganese
Rule for the call: 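Called active when the mean ATP z-score is above 1.5 or below -1.5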
Meaning of the calls: active = strong ATP change, up or down; inactive = no strong ATP change

target | dsRNA no. | mean ATP z-score | Outcome
CG4480 | 1 | 0.531 | inactive
CG9467 | 1 | -0.17 | inactive
CG30344 | 1 | -0.451 | inactive
Hgsnat (Heparan-alpha-glucosaminide N-acetyltransferase) | 1 | 0.206 | inactive
Hgsnat (Heparan-alpha-glucosaminide N-acetyltransferase) | 2 | -1.68 | active
drl (derailed) | 1 | 0.73 | inactive
drl (derailed) | 2 | 0.85 | inactive
drl (derailed) | 3 | -0.259 | inactive
et (eye transformer) | 1 | -0.118 | inactive
snu (snustorr) | 1 | 5.39 | active
snu (snustorr) | 2 | -0.397 | inactive
Arv1 (ACAT-related protein required for viability 1) | 1 | 0.393 | inactive
CG42287 | 1 | -0.378 | inactive
CG5805 | 1 | -1.94 | active
CG5805 | 2 | -1.65 | active
ppk17 (pickpocket 17) | 1 | 0.698 | inactive
ppk17 (pickpocket 17) | 2 | -0.32 | inactive
CG2736 | 1 | 0.994 | inactive
CG2736 | 2 | -0.487 | inactive
sina + Rh4 | 1 | 1.93 | active
stas (Stasimon) | 1 | 3.18 | active
ste24c + CG30461 | 1 | -0.437 | inactive
ste24c + CG30461 | 2 | 0.213 | inactive
mrva (minerva) | 1 | 0.141 | inactive
mrva (minerva) | 2 | -1.55 | active
CG11961 | 1 | 3.74 | active
CG11961 | 2 | -0.0836 | inactive
CG5326 | 1 | -0.0274 | inactive
CG5326 | 2 | -0.414 | inactive
Dop1R1 (Dopamine 1-like receptor 1) | 1 | -0.121 | inactive
Dop1R1 (Dopamine 1-like receptor 1) | 2 | 0.844 | inactive
Dop1R1 (Dopamine 1-like receptor 1) | 3 | 0.167 | inactive
gogo (golden goal) | 1 | -0.321 | inactive
gogo (golden goal) | 2 | -0.0489 | inactive
CG32262 | 1 | 0.471 | inactive
CG32262 | 2 | -0.816 | inactive
arr (arrow) | 1 | 0.267 | inactive
arr (arrow) | 2 | 0.126 | inactive
Ror | 1 | -0.343 | inactive
Ror | 2 | -0.205 | inactive
Ror | 3 | 0.0586 | inactive
l(2)03659 (lethal (2) 03659) | 1 | -0.248 | inactive
l(2)03659 (lethal (2) 03659) | 2 | -0.724 | inactive
CG13160 | 1 | -0.159 | inactive
CG6149 | 1 | -0.579 | inactive
CG6974 | 1 | 0.12 | inactive

Reprinted from the listing, 5 entries:
target | dsRNA no. | mean ATP z-score | Outcome
Ror | 3 | 0.0586 | inactive
l(2)03659 (lethal (2) 03659) | 1 | -0.248 | inactive
l(2)03659 (lethal (2) 03659) | 2 | -0.724 | inactive
CG13160 | 1 | -0.159 | inactive
CG6149 | 1 | -0.579 | inactive
